PubChem BioAssay AID504808, Drosophila RNAi Screening Center – 2011

- Assay: 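Fly genes required to hold E2F transcription in check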 (primary screen)
- System: Drosophila S2 cells
- Reagents: long dsRNA against Drosophila genes
- Detection: 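Firefly luciferase driven by E2F sites, normalised to Renilla luciferase on the same minimal promoter, measured by plate reader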
- Scale: E2F firefly: higher = more E2F reporter activity; Renilla normaliser: higher = more normaliser reporter signal
- Rule for the call: 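Called active if the normalised E2F reporter went up by over 50%; the cutoff is arbitrary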
In all, the deposit lists about 21,000 reagents; below is an unselected part of those that have a named target and a result. Over the whole deposit, 18 (0.084%) got an active call. 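Raw counts without plate normalisation, one of two replicates; the ratio scores behind the calls were not deposited.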 Reagents against one gene are numbered here. A plus sign joins genes that one reagent is predicted to hit. Reagent sequences are not shown. Not given: the amount of reagent, the time to read-out.

Fkbp59 — E2F firefly, rep 1: 1.50e5; Renilla normaliser, rep 1: 4644; Outcome: inactive
mtDNA-helicase — E2F firefly, rep 1: 1.55e5; Renilla normaliser, rep 1: 5481; Outcome: inactive
CG5968 — E2F firefly, rep 1: 91643; Renilla normaliser, rep 1: 3780; Outcome: inactive
CG13603 — E2F firefly, rep 1: 69904; Renilla normaliser, rep 1: 3177; Outcome: inactive
l(1)G0004 — E2F firefly, rep 1: 1.38e5; Renilla normaliser, rep 1: 5619; Outcome: inactive
Torsin — E2F firefly, rep 1: 43947; Renilla normaliser, rep 1: 3118; Outcome: inactive

Records above whose target name begins with C or c (2):
CG5968 — E2F firefly, rep 1: 91643; Renilla normaliser, rep 1: 3780; Outcome: inactive
CG13603 — E2F firefly, rep 1: 69904; Renilla normaliser, rep 1: 3177; Outcome: inactive

Continued.
Alk — E2F firefly, rep 1: 1.34e5; Renilla normaliser, rep 1: 4670; Outcome: inactive
Hk #1 — E2F firefly, rep 1: 52696; Renilla normaliser, rep 1: 2177; Outcome: inactive
Hk #2 — E2F firefly, rep 1: 7318; Renilla normaliser, rep 1: 820; Outcome: inactive
Hk #3 — E2F firefly, rep 1: 78640; Renilla normaliser, rep 1: 5100; Outcome: inactive
CG11597 — E2F firefly, rep 1: 68517; Renilla normaliser, rep 1: 3697; Outcome: inactive
thoc6 — E2F firefly, rep 1: 68467; Renilla normaliser, rep 1: 3823; Outcome: inactive
CG33257 — E2F firefly, rep 1: 1.70e5; Renilla normaliser, rep 1: 8125; Outcome: inactive
CG10950 — E2F firefly, rep 1: 1.49e5; Renilla normaliser, rep 1: 5060; Outcome: inactive
CG33490 — E2F firefly, rep 1: 70474; Renilla normaliser, rep 1: 3467; Outcome: inactive
Dic1 — E2F firefly, rep 1: 74769; Renilla normaliser, rep 1: 3210; Outcome: inactive
hpRNA:CR18854 + IP3K1 — E2F firefly, rep 1: 82095; Renilla normaliser, rep 1: 3153; Outcome: inactive
CG11275 — E2F firefly, rep 1: 99351; Renilla normaliser, rep 1: 4209; Outcome: inactive
MstProx #1 — E2F firefly, rep 1: 62998; Renilla normaliser, rep 1: 4687; Outcome: inactive
MstProx #2 — E2F firefly, rep 1: 1.49e5; Renilla normaliser, rep 1: 7318; Outcome: inactive
